The target of data set [1] is T1, GcdR (Pseudomonas putida KT2440) (UniProt Q88RH3).
T1 sequence: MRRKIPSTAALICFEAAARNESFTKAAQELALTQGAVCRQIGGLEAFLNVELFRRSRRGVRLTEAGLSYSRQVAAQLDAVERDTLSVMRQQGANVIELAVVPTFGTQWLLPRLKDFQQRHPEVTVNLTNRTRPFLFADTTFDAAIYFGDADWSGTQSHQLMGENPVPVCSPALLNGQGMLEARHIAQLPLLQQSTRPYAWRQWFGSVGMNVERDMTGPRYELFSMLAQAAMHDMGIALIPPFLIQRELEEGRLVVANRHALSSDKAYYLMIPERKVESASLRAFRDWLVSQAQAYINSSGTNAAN
The data set can be described thus: DNase I footprinting. Particulars: 5 ug GcdR, 400 ng probe, two protected regions; 10 mM Tris-HCl pH 7.4, 50 mM KCl, 0.5 mM EDTA, 10% glycerol, 1 mM DTT; 30 C, 30 min; 6% native PAGE at 4 C; recombinant protein; label: FAM (M13F-FAM primer); probe letters rebuilt from the primers and the genome; part of a longer molecule.

Data set [2] addresses T2, CsiR (Pseudomonas putida KT2440) (UniProt Q88IU1).
T2 sequence: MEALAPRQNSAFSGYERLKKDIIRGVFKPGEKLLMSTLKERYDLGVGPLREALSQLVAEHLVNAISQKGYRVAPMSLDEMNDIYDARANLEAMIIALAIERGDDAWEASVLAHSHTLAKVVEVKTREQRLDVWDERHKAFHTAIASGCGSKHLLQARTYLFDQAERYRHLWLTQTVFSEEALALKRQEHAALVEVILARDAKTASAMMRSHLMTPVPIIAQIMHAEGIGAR
The data set can be described thus: DNase I footprinting. The settings on record: 1 ug CsiR, 400 ng probe; 10 mM Tris-HCl pH 7.4, 50 mM KCl, 0.5 mM EDTA, 10% glycerol, 1 mM DTT; 30 C, 30 min; 6% native PAGE at 4 C; recombinant protein; residues 1-231; protein details: His6 (pETDuet-1, BamHI/HindIII); label: FAM (M13F-FAM primer); probe letters rebuilt from the primers and the genome; part of a longer ….

Data set [3] has as its target T2, CsiR (Pseudomonas putida KT2440). The experiment in a line: EMSA. Particulars: 5-fold molar excess CsiR, prevents binding, dose-dependent 10-120 mM, 10 mM Tris-HCl pH 7.4, 50 mM KCl, 0.5 mM EDTA, 10% glycerol, 1 mM DTT, 30 C, 30 min, 6% native PAGE at 4 C, recombinant protein, residues 1-231, protein details: His6 (pETDuet-1, BamHI/HindIII), label: none (SYBR green I stain), probe letters rebuilt from the primers and the genome.

For at least one entry, the source does not settle the construct or the ends of the probe. For some of these results: The comparison behind a weaker result is the experiment's own reference, which may not be listed here. For some of these results: Protein sequences can lack the tags named with them.

Take “GCCGCCTCGAAGCAAATCAGGGCGGCGGTACTGGGGATCTTACGGCGCATGTACGTCAACCTCACTTGTAAGGCTGTCAATAAGGCGTTTTGCCGATTTACGGAGTGACAAAATATCACTAATCGGTGCGCAATCCTCGTTTGTCGCCGCAGCCGATCAGGCCTAGGCTCAAAGGCACAAGAAACTGACCCCTATTTCGAGGATTCGCTCATGGTCGGTAAAGCAAGTTTCAACTGGATCGACCCGTTGCTGCTGGATCA (double strand) [F2 footprinting probe (FAM)]”: in data set [1], the binding result is reported as “binds”.
Regarding “GATCCTGTTCCTCAAAACGTTTTGCCGATCATACCGAAACCCTCTGCTGACGAAAAACAATGGACAAACACGAGTAGTGTCGTTGAAAAATAAAAATGTAGACATTTTCAGTTAGTGGCGATATTTTTACCTCGCCCGCACTGATCCAGGTCATGACCGGACGGCGCCATCTACTTTTTTAGCCAGGACACTGCC (double strand) [F1 footprinting probe (FAM)]”, the binding result in data set [2] is “binds”.
For the sequence “GATCCTGTTCCTCAAAACGTTTTGCCGATCATACCGAAACCCTCTGCTGACGAAAAACAATGGACAAACACGAGTAGTGTCGTTGAAAAATAAAAATGTAGACATTTTCAGTTAGTGGCGATATTTTTACCTCGCCCGCACTGATCCAGGTCATGACCGGACGGCGCCATCTACTTTTTTAGCCAGGACACTGCC (double strand) [F1 (csiR-csiD intergenic region)]”, the binding result in data set [3] (40 mM L-2-hydroxyglutarate) and in data set [3] (40 mM glutarate) was “binds more weakly” in each case.

These data come from paper PMC6667623, “Regulation of Glutarate Catabolism by GntR Family Regulator CsiR and LysR Family Regulator GcdR in Pseudomonas putida KT2440” (mBio, 2019).
